Patent US20210403913
For at least one entry, the source does not settle the construct or the ends of the probe. A negative result means that nothing was seen under these conditions. For some of these results: Protein sequences can lack the tags named with them.

Sequences of proteins named here, by UniProt entry; tags and fusion partners are left off. Residues count along the entry.
UniProt P19875, 35-107: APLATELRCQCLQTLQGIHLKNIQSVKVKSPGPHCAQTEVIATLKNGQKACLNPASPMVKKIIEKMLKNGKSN
UniProt P19876, 35-107: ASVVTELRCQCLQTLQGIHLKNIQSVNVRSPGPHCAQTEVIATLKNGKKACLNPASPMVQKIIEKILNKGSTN
UniProt P09341, 35-107: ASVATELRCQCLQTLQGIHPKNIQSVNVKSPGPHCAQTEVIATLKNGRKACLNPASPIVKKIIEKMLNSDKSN
UniProt P80162, 38-114: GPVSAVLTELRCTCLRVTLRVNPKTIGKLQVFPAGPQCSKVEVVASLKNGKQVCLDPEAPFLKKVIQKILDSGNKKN
UniProt P42830, 37-114: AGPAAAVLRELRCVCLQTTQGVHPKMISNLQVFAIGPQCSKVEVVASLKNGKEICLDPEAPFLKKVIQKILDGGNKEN

Experiments:
Assay in all cases: SPR
CCL5 (Homo sapiens) = target: T1, CCL5 (Homo sapiens) (UniProt P13501); conditions: L-RNA; 5'-amino linker coupled to DBCO, immobilised; biosensor; no binding up to 12.5 nM CCL5; 25 C; purified recombinant protein; mirror-image nucleic acid; variant of 315-F8-002 (L)
T1 sequence: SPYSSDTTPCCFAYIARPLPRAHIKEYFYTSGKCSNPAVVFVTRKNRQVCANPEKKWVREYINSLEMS

CXCL7 (Homo sapiens) = target: T2, CXCL7 (Homo sapiens) (UniProt P02775); conditions: L-RNA; purified recombinant protein; protein details: RnD Systems, PeproTech or ProSpecTech; mirror-image nucleic acid; variant of 315-F8-001 (L)
T2 sequence: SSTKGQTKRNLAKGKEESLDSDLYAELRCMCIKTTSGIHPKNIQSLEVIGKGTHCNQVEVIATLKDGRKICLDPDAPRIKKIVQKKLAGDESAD

CXCL2 (Homo sapiens) = CXCL2 (Homo sapiens) (UniProt P19875); conditions: L-RNA; purified recombinant protein; protein details: RnD Systems, PeproTech or ProSpecTech; mirror-image nucleic acid; variant of 315-F8-001 (L)
CXCL3 (Homo sapiens) = CXCL3 (Homo sapiens) (UniProt P19876); conditions: L-RNA; purified recombinant protein; protein details: RnD Systems, PeproTech or ProSpecTech; mirror-image nucleic acid; variant of 315-F8-001 (L)
CXCL1 (Homo sapiens) = CXCL1 (Homo sapiens) (UniProt P09341); conditions: L-RNA; purified recombinant protein; protein details: RnD Systems, PeproTech or ProSpecTech; mirror-image nucleic acid; variant of 315-F8-001 (L)
CXCL6 (Homo sapiens) = CXCL6 (Homo sapiens) (UniProt P80162); conditions: L-RNA; purified recombinant protein; protein details: RnD Systems, PeproTech or ProSpecTech; mirror-image nucleic acid; variant of 315-F8-001 (L)
CXCL5 (Homo sapiens) = CXCL5 (Homo sapiens) (UniProt P42830); conditions: L-RNA; purified recombinant protein; protein details: RnD Systems, PeproTech or ProSpecTech; mirror-image nucleic acid; variant of 315-F8-001 (L)

Measured: binding result

CUGACGGAAGUACGUGGAAAGCCGAAAGUGUGUCCCGGUCAG [315-F8-002-DBCO]
no binding: CCL5 (Homo sapiens)

CUGACGGAAGUACGUGGAAAGCCGAAAGUGUGUCCCGGUCAG [315-F8-002 (L)]
not listed: CCL5 (Homo sapiens)
no binding: all other assays above
